Source: PubChem BioAssay AID1487 (National Center for Advancing Translational Sciences (NCATS), 2009)
Where “and” joins values, the source holds several entries; their conditions need not be identical. Identical values can stand only once. The list shows a part of the results. Shown are side measurements of this screen, not its main read-out; they come without a call. Most of these compounds were active or inconclusive in the main read-out, so they are no random draw. Potencies come from curve fits of mixed quality, noted in brackets.

Test: qHTS Assay for Modulators of Lamin A Splicing
Conditions: HeLa LMNA splicing GFP/RFP minigene ratio, 48 h
In short: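 Read-out is the ratio of GFP to DsRed2 object intensity, acquired by 488 nm laser-scanning cytometry on HeLa lamin A-EGFP minigene reporter cells. Compound incubation 48 hrs at 37 °C in Opti-MEM with 2% FBS; DMSO 0.5% final.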

[1] = measured here: GFP splicing reporter channel
[2] = measured here: RFP viability control channel

Compound: CC1(c2ccccc2)CC(C)(C)N(C(=O)C2CCCO2)c2ccccc21 (configuration not stated)
- AC50 [1]: 22.4 µM [rising, single point]
- AC50 [2]: 12.6 µM [rising, single point]

Compound: COc1ccc(NC(C)=O)cc1NC(=O)CN1CCN(C2c3ccccc3-c3ccccc32)CC1
- AC50 [1]: 17.8 µM [falling, single point]
- AC50 [2]: 20 µM [falling, partial curve]

Compound: CNC[C@H](O)c1cccc(O)c1
- AC50 [1]: 1.12 µM [rising, full curve, poor fit] and 447 nM [falling, full curve, poor fit]
- AC50 [2]: 5.62 µM [rising, single point] and 1.58 µM [falling, partial curve, poor fit]

Compound: COc1ccc(NC(=O)c2ccc(-c3ccc(C)c4ccccc34)o2)cc1
- AC50 [1]: 17.8 µM [rising, single point]
- AC50 [2]: 12.6 µM [rising, partial curve]

Compound: Cc1nn(CC(=O)Nc2ccc(Cl)c(S(=O)(=O)N(C)C)c2)c(C)c1[N+](=O)[O-]
- AC50 [2]: 15.8 µM [rising, single point]

Compound: CCc1nnc(NC(=O)CSc2nnc(-c3cc4ccccc4cc3O)n2CC)s1
- AC50 [2]: 12.6 µM [rising, single point]

Compound: COc1cc(C2C3=C(CC(C)(C)CC3=O)OC(N)=C2[N+](=O)[O-])ccc1O (configuration not stated)
- AC50 [2]: 35.5 µM [rising, single point]

Compound: COc1cccc(/C=C/C(=O)OCC(=O)Nc2cccc(S(=O)(=O)N3CCOCC3)c2)c1OC
- AC50 [1]: 0.501 µM [rising, single point]
- AC50 [2]: 0.00447 µM [rising, full curve, poor fit]

Compound: CCOc1cc(C2C(C(=O)OC(C)C)=C(C)NC3=C2C(=O)CCC3)cc([N+](=O)[O-])c1O (configuration not stated)
- AC50 [1]: 11.2 µM [falling, single point]

Compound: O=C(CCn1nc(-c2ccccc2)c2ccccc2c1=O)NCC1CCCO1 (configuration not stated)
- AC50 [1]: 0.355 µM [rising, full curve]
- AC50 [2]: 1.58 µM [rising, partial curve, poor fit]

Compound: c1ccc(-c2nc3ccccc3[nH]2)nc1
- AC50 [1]: 0.0562 µM [falling, partial curve, poor fit]
- AC50 [2]: 0.0501 µM [falling, full curve, poor fit]

Compound: O=C(NCCO)c1cccc(Nc2nc(-c3ccccc3)c3cc(Cl)ccc3n2)c1
- AC50 [2]: 0.0224 µM [falling, single point]

Compound: c1csc(CNc2ccnc(-c3ccoc3)n2)c1
- AC50 [1]: 8.91 µM [falling, partial curve, poor fit]
- AC50 [2]: 14.1 µM [falling, partial curve, poor fit]

Compound: CCOC(=O)N1CCN(C(=O)CSCC(=O)Nc2nc(-c3cccs3)cs2)CC1
- AC50 [2]: 15.8 µM [rising, single point]

Compound: O=c1nc2sc3ccccc3n2c(=O)n1-c1cccc(Cl)c1
- AC50 [2]: 17.8 µM [rising, single point]

Compound: Cc1[nH]n2c(=O)c3c(nc2c1-c1ccc(F)cc1)CCCC3
- AC50 [1]: 35.5 µM [falling, single point]
- AC50 [2]: 17.8 µM [falling, single point]

Compound: Cc1ccc(CN(c2ccc(C(=O)NCc3cccnc3)cc2)S(C)(=O)=O)cc1
- AC50 [2]: 31.6 µM [rising, single point]

Compound: COc1ccccc1NS(=O)(=O)c1cccc(NC(=O)NC2CCCCC2)c1
- AC50 [2]: 1 µM [rising, partial curve]

Compound: CC1CCN(C(=S)Nc2ccc(SC(F)F)cc2)CC1
- AC50 [1]: 5.01 µM [rising, partial curve, poor fit]
- AC50 [2]: 14.1 µM [rising, partial curve]

Compound: Cc1ccc(C(=O)C[n+]2cc(-c3ccccc3)n3c2CCCCC3)cc1
- AC50 [1]: 3.16 µM [rising, single point]
- AC50 [2]: 3.16 µM [rising, full curve]

Compound: Cc1cc(C)nc(N/N=C/c2cccc3ccccc23)n1
- AC50 [2]: 25.1 µM [rising, single point]

Compound: O=C(O)CCCCCn1c(SCc2cc(=O)n3ccccc3n2)nc2ccsc2c1=O
- AC50 [1]: 0.562 µM [falling, full curve]
- AC50 [2]: 1.12 µM [falling, partial curve]

Compound: O=C(CSc1nc(Nc2ccccc2)nc(N2CCOCC2)n1)Nc1ccc2c(c1)OCCO2
- AC50 [1]: 17.8 µM [rising, partial curve, poor fit]
- AC50 [2]: 7.94 µM [rising, partial curve, poor fit]

Compound: COc1ccc(/C=N/Nc2nnc(-c3ccccc3)c(=O)[nH]2)cc1
- AC50 [2]: 5.62 µM [rising, partial curve]

Compound: O=C(N/N=C/c1cccc(Oc2ccccc2)c1)c1cc[n+]([O-])cc1
- AC50 [2]: 0.00447 µM [falling, full curve, poor fit]

Compound: Cc1cc2cc(CNC(=S)Nc3ccc(OC(F)(F)F)cc3)ccc2[nH]1
- AC50 [1]: 35.5 µM [rising, single point]

Compound: COc1ccccc1C(=O)NCCC(=O)Nc1cccnc1
- AC50 [1]: 0.0562 µM [rising, partial curve, poor fit]

Compound: COc1cccc(-c2ccc3ncnc(N4CCN(C)CC4)c3c2)c1
- AC50 [1]: 17.8 µM [falling, partial curve, poor fit]
- AC50 [2]: 20 µM [falling, partial curve, poor fit]

Compound: O=[N+]([O-])c1ccc(N=Cc2sc3ccccc3c2O)cc1
- AC50 [2]: 0.708 µM [rising, full curve, poor fit]

Compound: N#CC(C#N)=C(N)CSc1cccc[n+]1[O-]
- AC50 [1]: 10 µM [falling, partial curve, poor fit]

Compound: CCOc1ccc(N(CC(=O)Nc2ccccc2)S(C)(=O)=O)cc1
- AC50 [1]: 3.55 µM [falling, single point]
- AC50 [2]: 3.16 µM [falling, single point]

Compound: O=C(Nc1ccccc1O)/C(=C\c1ccccc1)NC(=O)c1ccccc1
- AC50 [1]: 0.0282 µM [rising, full curve, poor fit]

Compound: Cc1ccc(N2C(=O)C3C4C=CC(CNC(=S)N5CCN(c6ccccn6)CC5)(O4)C3C2=O)cc1 (configuration not stated)
- AC50 [2]: 20 µM [rising, single point]

Compound: O=C(NC1CCCCC1)C(c1ccc2ncccc2c1)N(Cc1cccs1)C(=O)c1cccs1 (configuration not stated)
- AC50 [1]: 35.5 µM [falling, single point]
- AC50 [2]: 35.5 µM [falling, single point]

Compound: O=C1CSC(c2ccccc2[N+](=O)[O-])N1c1ccc(O)cc1 (configuration not stated)
- AC50 [2]: 2 µM [falling, partial curve, poor fit]

Compound: CCOC(=O)c1sc(C)c2c1NC(C)(c1cccs1)NC2=O (configuration not stated)
- AC50 [2]: 0.0251 µM [rising, full curve, poor fit]

Compound: CNC(=S)NCCc1ccc(OC)cc1
- AC50 [2]: 39.8 µM [falling, partial curve, poor fit]

Compound: O=C(NCC1CCCC(CNC(=O)N2CCc3ccccc32)C1)N1CCc2ccccc21 (configuration not stated)
- AC50 [2]: 14.1 µM [rising, single point]

Compound: CC1CCCN(S(=O)(=O)c2ccc(C(=O)Nc3nnc(-c4ccccc4Cl)o3)cc2)C1 (configuration not stated)
- AC50 [2]: 1.58 µM [rising, full curve, poor fit]

Compound: O=C(NCc1ccc2c(c1)OCO2)c1cccc(S(=O)(=O)N2CCCCC2)c1
- AC50 [2]: 15.8 µM [rising, single point]

Compound: COc1ccc2c(c1)O[C@@H](c1cccc(C(F)(F)F)c1)[C@H](OC(=O)NCCc1ccc(OC)c(OC)c1)C2=O
- AC50 [2]: 12.6 µM [rising, partial curve]

Compound: C[C@](N)(Cc1ccc(O)cc1)C(=O)O
- AC50 [1]: 8.91 µM [falling, partial curve, poor fit]

Compound: COc1ccccc1-c1nnc(NC(=O)CSc2nncn2C)s1
- AC50 [2]: 0.794 µM [rising, partial curve, poor fit]

Compound: Cc1sc2nc(CN3CCCC3)nc(Cl)c2c1C
- AC50 [2]: 12.6 µM [rising, single point]

Compound: CCOc1ccc(C(=O)c2ccccc2C(=O)O)cc1OCC
- AC50 [1]: 0.00355 µM [falling, full curve, poor fit]
- AC50 [2]: 0.00447 µM [falling, full curve, poor fit]

Compound: COc1ccc(Oc2ccc(N/C=C3/CCCC3=O)cc2)cc1
- AC50 [2]: 1 µM [rising, partial curve, poor fit]

Compound: COc1ccc(CCc2nnc(CCC(=O)NCc3cnn(-c4ccccc4C)c3)o2)cc1
- AC50 [1]: 2.24 µM [falling, single point]
- AC50 [2]: 3.98 µM [falling, partial curve]

Compound: Cc1ccc2nnnc(-c3ccccc3)c2c1
- AC50 [2]: 5.01 µM [rising, partial curve, poor fit]

Compound: O=S(=O)(c1ccc(Oc2ccc(S(=O)(=O)N3CCOCC3)cc2)cc1)N1CCOCC1
- AC50 [2]: 15.8 µM [rising, partial curve]

Compound: O=C(CN(C(=O)Cn1nnc(-c2cccs2)n1)c1ccc2c(c1)OCCO2)NCc1ccccc1
- AC50 [2]: 0.398 µM [rising, full curve, poor fit]

Compound: O=c1cc(-c2ccc(O)cc2)oc2cc(O[C@@H]3O[C@H](CO)[C@@H](O)[C@H](O)[C@H]3O[C@@H]3OC[C@](O)(CO)[C@H]3O)cc(O)c12
- AC50 [1]: 0.0316 µM [falling, full curve, poor fit]

Compound: CCOc1ccc(NC(=O)C(=O)NCCc2csc(-c3ccc(C(F)(F)F)cc3)n2)cc1
- AC50 [2]: 0.0447 µM [falling, full curve, poor fit]

Compound: CCCCNC(=O)CCC(=O)Nc1ccc2nc(N3CCCCC3)cc(C)c2c1
- AC50 [1]: 10 µM [falling, partial curve]

Compound: COc1cc(C2C(C#N)=C(N)Oc3c2ccc2ccccc32)ccc1OCC(=O)Nc1cccc(C)c1 (configuration not stated)
- AC50 [1]: 7.94 µM [falling, partial curve, poor fit]
